Measured values as given in paper PMC6155126.
These are yes or no findings as the source states them, for the method shown. In cells and extracts the contact can be indirect. Some results given as binding are weak or reduced against the parent protein; the word gives no strength.

The chains behind the UniProt entries cited, without tags or fusion partners.
UniProt Q9BUH6: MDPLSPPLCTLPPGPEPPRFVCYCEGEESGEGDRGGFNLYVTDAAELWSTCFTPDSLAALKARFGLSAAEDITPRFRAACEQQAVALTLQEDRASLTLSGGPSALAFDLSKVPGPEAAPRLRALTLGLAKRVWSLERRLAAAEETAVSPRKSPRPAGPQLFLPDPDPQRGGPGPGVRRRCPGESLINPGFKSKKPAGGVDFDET

Assays:
[1] = biological target: FLAG-PAXX (overexpressed in U2OS cells) (human) (UniProt Q9BUH6); assay: co-IP; anti-FLAG M2 agarose IP of the FLAG-tagged bait from detergent-soluble nuclear (nucleoplasmic) or benzonase-treated soluble chromatin extracts of stably or transiently transfected HEK293/HEK293F cells (FLAG-PAXX also in U2OS); elution with 3X FLAG peptide; immunoblot
[2] = biological target: PAXX (endogenous) (human (endogenous in HEK293F)) (UniProt Q9BUH6); assay: co-IP; endogenous proteins; HEK293F soluble nuclear, nucleoplasmic or soluble chromatin extracts; IP with anti-Pol λ, anti-PAXX, anti-XLF or anti-XRCC4 (rIgG or mIgG as control); cells untreated or 0-60 min after 10 Gy X-ray; immunoblot
FLAG-PAXX (human) = FLAG-PAXX (human) (UniProt Q9BUH6); assay: co-IP; anti-FLAG M2 agarose IP of the FLAG-tagged bait from detergent-soluble nuclear (nucleoplasmic) or benzonase-treated soluble chromatin extracts of stably or transiently transfected HEK293/HEK293F cells (FLAG-PAXX also in U2OS); elution with 3X FLAG peptide; immunoblot

Row | binding [1] | binding [2] | binding (FLAG-PAXX (human)) | Substance
1 | binds | – | – | Pol λ (in U2OS cells) (from UniProt Q9UGP5 1-575) (enzyme)
2 | – | binds | binds | DNA polymerase λ (endogenous) (from UniProt Q9UGP5 1-575) (enzyme)
